No constants are given. Whether binding was seen depends on the method and setting. In cells and extracts the contact can be indirect. Some entries that bind do so weakly or less than the wild type. Where a sequence is shown, tags or fusion partners need not be part of it.
Target: wild type human APOBEC3G carrying a C-terminal Myc epitope tag (human), Q9HC16
Experiment: co-IP; HeLa cells co-transfected with 2.5 ug each of untagged and C-terminally Myc-tagged A3G vectors; lysis in 0.5% Triton X-100, 287 mM NaCl, 2.68 mM KCl, 1.47 mM KH2PO4, Na2HPO4, pH 7.2; immunoprecipitation with Myc-specific monoclonal antibody 9E10; blot with A3G-specific Apo-C17
Conditions: remark: other sources report otherwise

B1: untagged human APOBEC3G wild type, Q9HC16 1-384 (protein)
chain: MKPHFRNTVERMYRDTFSYNFYNRPILSRRNTVWLCYEVKTKGPSRPPLDAKIFRGQVYSELKYHPEMRFFHWFSKWRKLHRDQEYEVTWYISWSPCTKCTRDMATFLAEDPKVTLTIFVARLYYFWDPDYQEALRSLCQKRDGPRATMKIMNYDEFQHCWSKFVYSQRELFEPWNNLPKYYILLHIMLGEILRHSMDPPTFTFNFNNEPWVRGRHETYLCYEVERMHNDTWVLLNQRRGFLCNQAPHKHGFLEGRHAELCFLDVIPFWKLDLDQDYRVTCFTSWSPCFSCAQEMAKFISKNKHVSLCIFTARIYDDQGRCQEGLRTLAEAGAKISIMTYSEFKHCWDTFVDHQGCPFQPWDGLDEHSQDLSGRLRAILQNQEN
Q: With B1 as the binder, how does the binding read?
A: binds

Reference: publication PMC2776001
